Test results from PubChem BioAssay (NCATS).
Values joined by “and” are separate entries in the source; they are usually repeats but may differ in a detail not shown here. Equal entries are not always repeated. Inconclusive results, whose numbers are uncertain, are shown with a selection of clear calls. Where the call is inconclusive, the potency comes from a doubtful curve fit. Some compounds were tested as several samples or in several runs, with calls that do not always agree. Active and inactive are the calls of the source. Calls follow the shape of the dose curve; as a rule, active = well fitted curve in the direction sought with a large enough effect; inconclusive = small, poorly fitted or top-dose-only effect, or another doubt; inactive = no such curve, though single readings can be large; an effect the other way counts as inactive or inconclusive.

What was measured:
[1] = Identifying Small Molecule Inhibitors of Pancreatic Cancer Stem Cells (Panc1, Adherent) (AID 1259362); details: Potency: viability unless noted; viability, % of control: at 46.1 µM (top of the series) unless noted;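 as to viability, % of control: compound exposure lasted 48 h before the viability read; plate controls were DMSO-treated cells for no effect and cell-free media wells for full effect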
Procedure, shortened: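 After a 4 h attachment period, compounds were pinned into wells and cultures held 48 h under standard incubator conditions. Viability was then measured as CellTiter-Glo luminescence following 10 min at room temperature.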

[2] = P-glycoprotein substrates identified in KB-8-5-11 adenocarcinoma cell line, qHTS therapeutic library screen (AID 1346987); also: nearly all actives have a fitted effect of over 65% in size
Procedure, shortened: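 Steps: plate 500 KB-8-5-11 cells/well in DMEM + 10% FCS (colchicine removed); pin compounds in dose-response; incubate 72 h, 37 degree C, 5% CO2; add CellTiter-Glo, 5 min; read luminescence.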

[3] = NS1 protein of Zika virus - qHTS assay to identify small molecule inhibitors in human HEK 293 cells (AID 1347053); also: nearly all actives have a fitted effect of over 55% in size
Procedure, shortened: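 HEK 293 cells pretreated with compound for 1 h, then infected with ZIKV MR766 (MOI 0.5) for 24 h at 37 C. NS1 detected by TR-FRET with two anti-NS1 antibodies; normalized to uninfected (0%) and infected (100%) wells.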

[4] = P-glycoprotein substrates identified in KB-3-1 adenocarcinoma cell line, qHTS therapeutic library screen (AID 1346986);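 also: potency is for cytotoxicity meaning loss of cell viability; nearly all actives have a fitted effect of over 60% in size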
Procedure, shortened: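 Resistance attributable to P-gp was assessed by comparing AC50 in KB-8-5-11 with parental KB-3-1 and by tariquidar reversal. Cells were exposed 72 h and viability read by CellTiter-Glo.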
Potency is read from the fitted curve at half-maximal effect.

Row | SMILES | Potency [1] | Potency [2] | Potency [3] | viability, % of control [1] | Potency [4]
1 | COc1ccc(CCN(C)CCCOc2ccc(S(=O)(=O)c3[nH]c4ccccc4c3C(C)C)cc2)cc1OC | active: 26.4 µM | inactive |  |  | 
2 | CC(C)C[C@H](NC(=O)c1cc2ccccc2s1)C(=O)N1CCN(C(=O)[C@H](CO)NS(=O)(=O)c2ccc(Cl)cc2Cl)CC1 | inconclusive: 37.2 µM [cytotoxic, single point] | inconclusive: 37.2 µM [inhibitor, single point] | inconclusive: 37.2 µM [inhibitor, single point] |  | 
3 | Cc1ccc(NC(=O)c2ccc(CN3CCN(C)CC3)cc2)cc1Nc1nc(-c2cccnc2)cs1 | inconclusive: 23.5 µM [cytotoxic, single point] | inconclusive: 20.9 µM [inhibitor, partial curve] and inconclusive: 23.1 µM [inhibitor, single point] | inconclusive: 37.2 µM [inhibitor, partial curve, poor fit] |  | 
4 | COc1ccc2c(c1)CC[C@@H](CN(C)CC(=O)O)[C@H]2c1ccccc1 | inconclusive: 0.0662 µM [rising, full curve, poor fit] | active: 1.66 µM and inactive | inconclusive: 1.66 µM [inhibitor, full curve] |  | 
5 | COc1cc(Nc2ncc3c(n2)-c2ccc(Cl)cc2C(c2c(F)cccc2OC)=NC3)ccc1C(=O)O | inconclusive: 0.418 µM [rising, full curve, poor fit] | inconclusive: 18.4 µM [inhibitor, single point] and active: 83.3 nM and inconclusive: 10.3 µM [inhibitor, partial curve, poor fit] |  |  | 
7 | CC(=O)Nc1cccc(-n2c(=O)n(C3CC3)c(=O)c3c(Nc4ccc(I)cc4F)n(C)c(=O)c(C)c32)c1 | inconclusive: 18.7 µM [cytotoxic, partial curve] | inconclusive: 7.43 µM [inhibitor, single point] and inactive | inconclusive: 11.8 µM [inhibitor, single point] |  | 
8 | Nc1ccccc1NC(=O)c1ccc(CNc2nccc(-c3cccnc3)n2)cc1 | inconclusive: 3.72 µM [cytotoxic, full curve] | active: 2.96 µM and active: 2.31 µM |  |  | 
9 | CCCCN1CCC(CNC(=O)c2c3n(c4ccccc24)CCCO3)CC1 | inactive | inconclusive: 37.2 µM [inhibitor, single point] | inconclusive: 20.9 µM [inhibitor, single point] |  | 
10 | COc1cc2c(N3CCN(C(=O)Nc4ccc(OC(C)C)cc4)CC3)ncnc2cc1OCCCN1CCCCC1 | inconclusive: 0.001 µM |  | inconclusive: 33.2 µM [inhibitor, single point] |  | inconclusive: 18.4 µM [inhibitor, single point]
11 | CCc1ccc(CCOc2ccc(CC3SC(=O)NC3=O)cc2)nc1 (stereo unspecified) | inconclusive: 33.2 µM [cytotoxic, single point] | inconclusive: 16.4 µM [inhibitor, partial curve, poor fit] |  |  | 
12 | COCC(=O)NCC=Cc1ccc2ncnc(Nc3ccc(Oc4ccc(C)nc4)c(C)c3)c2c1 | inconclusive: 14.8 µM [cytotoxic, partial curve, poor fit] | inconclusive: 23.5 µM [inhibitor, single point] | inconclusive: 37.2 µM [inhibitor, single point] |  | 
13 | CCC(=O)N1CCN(c2ccc(-n3c(=O)ccc4cnc5ccc(-c6cnc7ccccc7c6)cc5c43)cc2C(F)(F)F)CC1 | inconclusive: 33.2 µM [cytotoxic, single point] | active: 41.8 nM and active: 133 nM | inconclusive: 1.05 µM [inhibitor, full curve] |  | 
14 | CCOc1ccn(-c2ccc(F)cc2)c(=O)c1C(=O)Nc1ccc(Oc2ccnc(N)c2Cl)c(F)c1 | active: 6.62 µM | inconclusive: 20.6 µM [inhibitor, single point] |  |  | 

Fetched one by one from above (2):
Row | SMILES | Potency [1] | Potency [2] | Potency [3] | viability, % of control [1] | Potency [4]
10 | COc1cc2c(N3CCN(C(=O)Nc4ccc(OC(C)C)cc4)CC3)ncnc2cc1OCCCN1CCCCC1 | inconclusive: 0.001 µM |  | inconclusive: 33.2 µM [inhibitor, single point] |  | inconclusive: 18.4 µM [inhibitor, single point]
5 | COc1cc(Nc2ncc3c(n2)-c2ccc(Cl)cc2C(c2c(F)cccc2OC)=NC3)ccc1C(=O)O | inconclusive: 0.418 µM [rising, full curve, poor fit] | inconclusive: 18.4 µM [inhibitor, single point] and active: 83.3 nM and inconclusive: 10.3 µM [inhibitor, partial curve, poor fit] |  |  | 
